Reference: the supplement of paper PMC10849652
The other results are listed elsewhere or left out.

Protein sequences, listed by entry. Tags and fused reporters are not part of them. Lines headed by an entry give the natural chain unless they say otherwise; changes in a name come on top.
UniProt Q6ZRQ5: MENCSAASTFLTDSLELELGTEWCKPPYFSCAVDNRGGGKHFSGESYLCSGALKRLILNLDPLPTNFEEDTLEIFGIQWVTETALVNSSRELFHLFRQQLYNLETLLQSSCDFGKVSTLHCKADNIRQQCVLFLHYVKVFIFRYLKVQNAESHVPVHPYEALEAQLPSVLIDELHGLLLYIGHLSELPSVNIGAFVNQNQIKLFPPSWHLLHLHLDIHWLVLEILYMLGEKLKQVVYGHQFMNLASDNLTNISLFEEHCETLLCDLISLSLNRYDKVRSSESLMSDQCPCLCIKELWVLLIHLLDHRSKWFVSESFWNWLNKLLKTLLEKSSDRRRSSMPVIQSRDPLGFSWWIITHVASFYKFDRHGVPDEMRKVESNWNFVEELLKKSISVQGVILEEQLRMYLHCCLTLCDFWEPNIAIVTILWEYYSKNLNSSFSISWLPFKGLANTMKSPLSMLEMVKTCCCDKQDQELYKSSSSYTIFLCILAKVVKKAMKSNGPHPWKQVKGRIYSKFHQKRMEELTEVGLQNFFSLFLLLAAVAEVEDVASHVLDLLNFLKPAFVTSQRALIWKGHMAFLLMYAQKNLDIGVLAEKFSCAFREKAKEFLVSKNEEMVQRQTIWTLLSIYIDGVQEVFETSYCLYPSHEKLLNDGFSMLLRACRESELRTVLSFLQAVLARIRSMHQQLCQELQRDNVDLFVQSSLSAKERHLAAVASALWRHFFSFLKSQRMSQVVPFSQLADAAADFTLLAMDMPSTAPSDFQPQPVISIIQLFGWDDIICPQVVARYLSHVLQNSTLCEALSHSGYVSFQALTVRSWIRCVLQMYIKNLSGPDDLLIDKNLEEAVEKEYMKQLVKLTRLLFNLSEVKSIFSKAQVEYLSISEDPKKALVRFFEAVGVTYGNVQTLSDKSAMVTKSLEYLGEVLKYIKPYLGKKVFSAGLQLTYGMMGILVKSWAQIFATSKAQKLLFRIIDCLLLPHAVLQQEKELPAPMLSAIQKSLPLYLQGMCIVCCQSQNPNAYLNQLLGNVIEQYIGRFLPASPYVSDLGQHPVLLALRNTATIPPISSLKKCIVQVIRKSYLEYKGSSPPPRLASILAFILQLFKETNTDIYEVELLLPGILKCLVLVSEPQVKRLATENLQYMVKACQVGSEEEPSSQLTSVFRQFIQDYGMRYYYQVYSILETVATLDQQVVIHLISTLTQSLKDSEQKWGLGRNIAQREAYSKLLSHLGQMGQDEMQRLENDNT
UniProt Q567V2: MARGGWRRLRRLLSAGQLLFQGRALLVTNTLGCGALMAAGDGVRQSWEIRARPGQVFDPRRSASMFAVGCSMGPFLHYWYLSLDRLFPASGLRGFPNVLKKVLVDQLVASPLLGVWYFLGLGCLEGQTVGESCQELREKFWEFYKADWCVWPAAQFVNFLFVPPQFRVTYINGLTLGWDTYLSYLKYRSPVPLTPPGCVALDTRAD
UniProt O95396: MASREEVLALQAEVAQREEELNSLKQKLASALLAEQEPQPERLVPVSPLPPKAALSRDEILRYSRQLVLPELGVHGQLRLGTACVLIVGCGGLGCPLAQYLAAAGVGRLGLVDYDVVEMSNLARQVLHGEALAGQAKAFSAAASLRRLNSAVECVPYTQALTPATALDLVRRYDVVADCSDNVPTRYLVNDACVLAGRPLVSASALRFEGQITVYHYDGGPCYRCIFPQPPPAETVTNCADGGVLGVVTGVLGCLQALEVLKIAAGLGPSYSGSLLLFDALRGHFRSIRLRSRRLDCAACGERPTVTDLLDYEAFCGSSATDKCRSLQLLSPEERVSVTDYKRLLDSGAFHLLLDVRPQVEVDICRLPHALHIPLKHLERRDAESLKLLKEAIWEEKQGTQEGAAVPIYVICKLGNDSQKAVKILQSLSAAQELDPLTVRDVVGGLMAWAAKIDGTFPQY
UniProt Q8NHP6: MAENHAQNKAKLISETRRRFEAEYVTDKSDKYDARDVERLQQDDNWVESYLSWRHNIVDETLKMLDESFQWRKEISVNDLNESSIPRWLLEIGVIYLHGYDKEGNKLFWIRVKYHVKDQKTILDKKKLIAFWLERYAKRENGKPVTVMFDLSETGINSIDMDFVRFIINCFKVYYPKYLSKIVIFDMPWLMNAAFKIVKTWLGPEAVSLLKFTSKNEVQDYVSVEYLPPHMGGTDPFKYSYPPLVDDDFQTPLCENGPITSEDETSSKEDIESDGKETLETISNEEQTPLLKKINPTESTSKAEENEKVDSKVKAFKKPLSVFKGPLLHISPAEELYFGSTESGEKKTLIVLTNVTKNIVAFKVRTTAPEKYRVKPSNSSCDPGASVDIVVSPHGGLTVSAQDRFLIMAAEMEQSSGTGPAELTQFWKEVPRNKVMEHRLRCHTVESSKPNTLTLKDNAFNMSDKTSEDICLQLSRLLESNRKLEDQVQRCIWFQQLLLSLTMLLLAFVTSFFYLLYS
UniProt Q9NQG6: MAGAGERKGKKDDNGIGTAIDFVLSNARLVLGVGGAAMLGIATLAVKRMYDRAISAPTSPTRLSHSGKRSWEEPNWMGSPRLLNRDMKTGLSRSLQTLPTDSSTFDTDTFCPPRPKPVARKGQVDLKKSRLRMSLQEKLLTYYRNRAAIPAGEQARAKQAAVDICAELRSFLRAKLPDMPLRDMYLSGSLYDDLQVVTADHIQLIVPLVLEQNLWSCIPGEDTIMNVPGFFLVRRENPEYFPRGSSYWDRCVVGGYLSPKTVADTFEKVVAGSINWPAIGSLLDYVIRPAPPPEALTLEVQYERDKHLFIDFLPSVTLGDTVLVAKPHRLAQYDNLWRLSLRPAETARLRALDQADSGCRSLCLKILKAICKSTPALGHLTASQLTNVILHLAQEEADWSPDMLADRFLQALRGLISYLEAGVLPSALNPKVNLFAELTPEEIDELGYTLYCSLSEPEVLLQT
UniProt Q9UNW1: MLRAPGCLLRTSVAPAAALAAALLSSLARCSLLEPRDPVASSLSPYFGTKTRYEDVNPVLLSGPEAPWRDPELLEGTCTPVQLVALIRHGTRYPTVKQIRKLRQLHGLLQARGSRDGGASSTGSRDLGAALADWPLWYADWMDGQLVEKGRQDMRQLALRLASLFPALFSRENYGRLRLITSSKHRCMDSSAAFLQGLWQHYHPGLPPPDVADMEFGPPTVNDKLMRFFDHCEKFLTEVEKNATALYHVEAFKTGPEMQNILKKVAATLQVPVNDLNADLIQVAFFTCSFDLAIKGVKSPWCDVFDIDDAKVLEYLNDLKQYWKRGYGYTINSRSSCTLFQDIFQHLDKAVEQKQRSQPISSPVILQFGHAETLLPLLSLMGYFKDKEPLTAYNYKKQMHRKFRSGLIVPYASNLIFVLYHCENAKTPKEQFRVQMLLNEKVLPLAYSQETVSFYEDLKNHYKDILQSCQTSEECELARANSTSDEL
UniProt Q9H000: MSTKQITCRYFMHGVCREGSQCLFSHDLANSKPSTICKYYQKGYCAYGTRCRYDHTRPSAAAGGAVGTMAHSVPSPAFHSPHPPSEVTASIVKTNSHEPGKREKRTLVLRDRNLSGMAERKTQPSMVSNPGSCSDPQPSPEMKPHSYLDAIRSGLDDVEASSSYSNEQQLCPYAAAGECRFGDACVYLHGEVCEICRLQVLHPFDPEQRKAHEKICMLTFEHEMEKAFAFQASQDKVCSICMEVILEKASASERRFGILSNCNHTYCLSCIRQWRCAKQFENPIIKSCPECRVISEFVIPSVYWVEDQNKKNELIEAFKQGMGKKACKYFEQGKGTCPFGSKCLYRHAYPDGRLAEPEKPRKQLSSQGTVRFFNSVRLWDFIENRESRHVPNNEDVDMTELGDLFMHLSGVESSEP
UniProt Q03111: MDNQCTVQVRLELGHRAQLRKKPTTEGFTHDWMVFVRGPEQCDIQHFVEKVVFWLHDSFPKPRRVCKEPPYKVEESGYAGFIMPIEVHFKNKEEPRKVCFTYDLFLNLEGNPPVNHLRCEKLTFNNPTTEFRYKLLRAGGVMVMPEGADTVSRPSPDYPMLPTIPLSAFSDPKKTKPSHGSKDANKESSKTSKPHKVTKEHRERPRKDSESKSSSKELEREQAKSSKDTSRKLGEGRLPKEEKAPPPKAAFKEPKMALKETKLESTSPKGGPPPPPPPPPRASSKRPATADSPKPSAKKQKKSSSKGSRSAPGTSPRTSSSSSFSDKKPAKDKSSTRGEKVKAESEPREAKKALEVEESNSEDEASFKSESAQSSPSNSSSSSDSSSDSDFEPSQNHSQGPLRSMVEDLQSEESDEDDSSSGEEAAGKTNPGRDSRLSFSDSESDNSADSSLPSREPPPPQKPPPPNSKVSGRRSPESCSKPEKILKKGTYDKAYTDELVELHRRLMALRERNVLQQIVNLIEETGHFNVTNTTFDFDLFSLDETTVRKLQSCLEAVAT
UniProt Q96EN8: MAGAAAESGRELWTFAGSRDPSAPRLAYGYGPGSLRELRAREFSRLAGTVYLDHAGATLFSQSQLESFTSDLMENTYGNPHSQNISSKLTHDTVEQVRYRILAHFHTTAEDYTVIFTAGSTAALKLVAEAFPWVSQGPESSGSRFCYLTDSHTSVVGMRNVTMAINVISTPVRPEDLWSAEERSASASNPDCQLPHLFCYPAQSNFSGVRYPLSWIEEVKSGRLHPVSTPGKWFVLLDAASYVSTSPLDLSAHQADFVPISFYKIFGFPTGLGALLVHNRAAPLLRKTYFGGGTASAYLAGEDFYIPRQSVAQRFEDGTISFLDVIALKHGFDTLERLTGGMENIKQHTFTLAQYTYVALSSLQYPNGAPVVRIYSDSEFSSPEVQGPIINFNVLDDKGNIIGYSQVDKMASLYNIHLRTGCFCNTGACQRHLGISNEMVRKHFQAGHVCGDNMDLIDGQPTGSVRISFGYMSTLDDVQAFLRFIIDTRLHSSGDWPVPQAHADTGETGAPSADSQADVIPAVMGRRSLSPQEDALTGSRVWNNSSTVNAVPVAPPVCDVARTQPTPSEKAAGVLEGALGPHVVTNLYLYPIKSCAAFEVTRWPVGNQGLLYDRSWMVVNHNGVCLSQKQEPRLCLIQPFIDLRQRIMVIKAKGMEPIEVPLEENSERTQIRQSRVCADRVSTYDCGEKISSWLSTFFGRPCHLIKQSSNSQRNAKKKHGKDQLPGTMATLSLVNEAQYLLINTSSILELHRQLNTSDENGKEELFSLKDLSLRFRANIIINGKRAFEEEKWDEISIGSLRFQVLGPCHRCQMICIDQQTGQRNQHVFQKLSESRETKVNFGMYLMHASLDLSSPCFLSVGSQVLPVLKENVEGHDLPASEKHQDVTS
UniProt Q9HC36: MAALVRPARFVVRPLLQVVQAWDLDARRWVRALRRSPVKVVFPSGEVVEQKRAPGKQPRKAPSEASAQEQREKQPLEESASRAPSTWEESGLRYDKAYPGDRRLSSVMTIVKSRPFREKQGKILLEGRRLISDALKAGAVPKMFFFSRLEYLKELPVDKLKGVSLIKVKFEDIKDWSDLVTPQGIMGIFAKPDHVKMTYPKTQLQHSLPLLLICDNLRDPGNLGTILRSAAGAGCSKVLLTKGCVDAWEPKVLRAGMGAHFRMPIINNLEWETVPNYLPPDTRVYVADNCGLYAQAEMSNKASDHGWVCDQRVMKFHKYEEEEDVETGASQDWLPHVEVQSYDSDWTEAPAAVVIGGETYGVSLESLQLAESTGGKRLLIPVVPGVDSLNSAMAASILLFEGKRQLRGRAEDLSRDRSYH
UniProt O60291: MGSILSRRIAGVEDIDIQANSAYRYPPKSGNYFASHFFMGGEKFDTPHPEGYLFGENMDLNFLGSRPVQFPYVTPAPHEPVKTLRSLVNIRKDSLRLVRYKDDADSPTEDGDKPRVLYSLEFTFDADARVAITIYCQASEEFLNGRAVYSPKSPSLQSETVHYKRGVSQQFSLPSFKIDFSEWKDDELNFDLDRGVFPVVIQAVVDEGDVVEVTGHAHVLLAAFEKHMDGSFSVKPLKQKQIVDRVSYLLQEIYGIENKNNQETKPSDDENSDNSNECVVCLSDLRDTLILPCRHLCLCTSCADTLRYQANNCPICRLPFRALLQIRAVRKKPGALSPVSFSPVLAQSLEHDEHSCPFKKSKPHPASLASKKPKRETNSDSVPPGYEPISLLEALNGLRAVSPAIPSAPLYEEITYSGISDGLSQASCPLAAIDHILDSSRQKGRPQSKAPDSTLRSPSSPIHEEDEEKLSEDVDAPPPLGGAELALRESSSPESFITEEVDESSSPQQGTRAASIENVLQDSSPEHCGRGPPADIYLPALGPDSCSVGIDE
UniProt Q95460, whole entry, looked up: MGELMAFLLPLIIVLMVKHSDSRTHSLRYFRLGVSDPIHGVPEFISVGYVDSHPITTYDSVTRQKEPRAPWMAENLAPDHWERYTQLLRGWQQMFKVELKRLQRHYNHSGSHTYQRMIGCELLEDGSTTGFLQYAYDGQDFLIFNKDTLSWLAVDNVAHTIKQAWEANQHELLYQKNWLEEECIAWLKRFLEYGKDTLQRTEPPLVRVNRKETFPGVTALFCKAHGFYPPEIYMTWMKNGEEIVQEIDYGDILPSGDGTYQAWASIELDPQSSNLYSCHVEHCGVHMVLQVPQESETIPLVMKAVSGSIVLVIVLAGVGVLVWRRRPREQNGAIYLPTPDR

Tests used:
Test in all cases: log2 fold change, soluble protein after heating vs DMSO (PISA); higher = thermal stabilisation; K562 lysate, 10 uM; active = over 0.2 and 3.5 SD of the protein, either way, in both replicates (recomputed)
[1] = compound: C1=CC=C(C=C1)[C@H](COC2=CC3=C(C=C2)NC(=O)N3)NC(=O)C4=CC=CN(C4=O)CC5=CC(=C(C=C5)F)F
Procedure, shortened: (§1)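 Thermal stability, expressed as log-two fold change relative to solvent controls, is given from duplicates. Crude K562 extract in PBS pH 7.4 with 1 mM MgCl2, at 1 mg/mL protein, was treated with 10 μM compound for 30 min and heated in aliquots for 3 min across 48°C-58°C. After pooling, adjustment to 0.5% NP-40 at 4°C and centrifugation at 21,000xg for 90 min, supernatant protein was measured by TMTpro 16plex LC-MS/MS with channel sums equalised.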

[2] = compound: CC1=C(SC2=C1C(=N[C@H](C3=NN=C(N32)C)CC(=O)N)C4=CC=C(C=C4)Cl)C
Procedure, shortened: as §1

[3] = compound: CC1=C2C(=CC=C1)N=C(N(C2=O)C3=CC=CC=C3C)CN4C=NC5=C(N=CN=C54)N
Procedure, shortened: as §1

[4] = compound: Cc1sc2c(c1C)C(c1ccc(Cl)cc1)=N[C@@H](CC(=O)OC(C)(C)C)c1nnc(C)n1-2
Procedure, shortened: as §1

[5] = compound: c1ccc([C@@H]2C[C@H]2NC2CCNCC2)cc1
Procedure, shortened: as §1

Measured: log2 fold change

MMS22L (UniProt Q6ZRQ5)
inactive: [1] -0.062 | [2] -0.027 | [3] -0.038 | [4] 0.07 | [5] 0.11

MRPL19 (UniProt P49406)
inactive: [1] 0.017 | [2] -0.064 | [3] 0.011 | [4] -0.065 | [5] 0.019

MPV17L2 (UniProt Q567V2)
inactive: [1] -0.014 | [2] 0.047 | [3] -0.175 | [4] -0.017 | [5] -0.025

MOCS3 (UniProt O95396)
inactive: [1] -0.056 | [2] -0.019 | [3] 0.278 | [4] 0.025 | [5] -0.176

MOSPD2 (UniProt Q8NHP6)
inactive: [1] -0.024 | [2] 0.029 | [3] 0.047 | [4] -0.078 | [5] -0.013

MPLKIP (UniProt Q8TAP9)
inactive: [1] 0.153 | [2] -0.062 | [3] -0.045 | [4] -0.292 | [5] -0.028

MIEF1 (UniProt Q9NQG6)
inactive: [1] -0.062 | [2] -0.054 | [3] 0.003 | [4] -0.09 | [5] 0.101

MRPL2 (UniProt Q5T653)
inactive: [1] 0.052 | [2] 0.025 | [3] -0.171 | [4] -0.069 | [5] -0.037

MINDY3 (UniProt Q9H8M7)
inactive: [1] 0.01 | [2] 0.004 | [3] 0.029 | [4] 0.072 | [5] 0.026

MRE11 isoform 3 (UniProt P49959)
inactive: [1] 0.015 | [2] 0.005 | [3] 0.023 | [4] 0.099 | [5] -0.023

MICAL2 (UniProt O94851)
inactive: [1] 0.126 | [2] 0.114 | [3] 0.016 | [4] 0.344 | [5] 0.031

MIEF1 (UniProt L0R8F8)
inactive: [1] 0.018 | [2] -0.043 | [3] 0.005 | [4] -0.025 | [5] 0.096

MIIP (UniProt Q5JXC2)
inactive: [1] -0.022 | [2] -0.012

MLX (UniProt Q9UH92)
inactive: [1] -0.123 | [2] -0.002 | [3] 0.063 | [4] -0.008 | [5] 0.023

MIA2 (UniProt Q96PC5)
inactive: [1] -0.072 | [2] -0.037 | [3] -0.013 | [4] -0.031 | [5] 0.095

Pulled one by one from above, two records:
MLX (UniProt Q9UH92)
inactive: [1] -0.123 | [2] -0.002 | [3] 0.063 | [4] -0.008 | [5] 0.023

MIEF1 (UniProt Q9NQG6)
inactive: [1] -0.062 | [2] -0.054 | [3] 0.003 | [4] -0.09 | [5] 0.101

Further results

MRPL14 (UniProt Q6P1L8)
inactive: [1] -0.036 | [2] -0.112 | [3] 0.068 | [4] 0.068 | [5] 0.043

MINPP1 (UniProt Q9UNW1)
inactive: [1] 0.084 | [2] 0.014 | [3] 0.046 | [4] 0.006 | [5] 0.028

MKRN2 (UniProt Q9H000)
inactive: [1] -0.015 | [2] 0.001 | [3] 0.034 | [4] 0.036 | [5] 0.077

MLLT1 (UniProt Q03111)
inactive: [1] 0.023 | [2] 0.046 | [3] -0.15 | [4] 0.048 | [5] -0.013

MOCOS (UniProt Q96EN8)
inactive: [1] 0.027 | [2] 0.02 | [3] 0.046 | [4] 0.011 | [5] -0.005

MRM3 (UniProt Q9HC36)
inactive: [1] -0.037 | [2] 0.023 | [3] 0.054 | [4] 0.05 | [5] -0.161

MGRN1 isoform 2 (UniProt O60291)
inactive: [1] 0.114 | [2] -0.084 | [3] -0.081 | [4] 0.073 | [5] 0.052

MR1 (UniProt Q95460)
inactive: [1] -0.035 | [2] 0.039 | [3] -0.081 | [4] 0.158

MLH1 (UniProt P40692)
inactive: [1] -0.038 | [2] -0.006 | [3] 0.006 | [4] -0.012 | [5] 0.019

MRPL13 (UniProt Q9BYD1)
inactive: [1] 0.058 | [2] 0.13 | [3] -0.031 | [4] 0.019 | [5] 0.031
